Data: doi:10.1101/2022.01.10.475757
Read-outs that look alike come from different tables or passages of the source. Results are given in words; binding and its absence hold for the method and conditions named. In cells and extracts the contact can be indirect. Some results given as binding are weak or reduced against the parent protein; the word gives no strength. Sequences can lack the tags named with a protein. Blank lines part the entries; values can stand above or below the molecule they belong to.

Chains of the proteins cited; added tags and fusions are not shown.
UniProt Q61025: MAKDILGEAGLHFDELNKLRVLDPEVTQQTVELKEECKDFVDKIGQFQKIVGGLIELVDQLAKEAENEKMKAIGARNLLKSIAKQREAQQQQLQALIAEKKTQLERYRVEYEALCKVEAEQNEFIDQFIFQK

Assays:
Experiment in all cases: co-IP
[1] = target: T1, GFP-CCDC38 (coiled-coil domain containing 38) (UniProt Q8CDN8)
T1 sequence: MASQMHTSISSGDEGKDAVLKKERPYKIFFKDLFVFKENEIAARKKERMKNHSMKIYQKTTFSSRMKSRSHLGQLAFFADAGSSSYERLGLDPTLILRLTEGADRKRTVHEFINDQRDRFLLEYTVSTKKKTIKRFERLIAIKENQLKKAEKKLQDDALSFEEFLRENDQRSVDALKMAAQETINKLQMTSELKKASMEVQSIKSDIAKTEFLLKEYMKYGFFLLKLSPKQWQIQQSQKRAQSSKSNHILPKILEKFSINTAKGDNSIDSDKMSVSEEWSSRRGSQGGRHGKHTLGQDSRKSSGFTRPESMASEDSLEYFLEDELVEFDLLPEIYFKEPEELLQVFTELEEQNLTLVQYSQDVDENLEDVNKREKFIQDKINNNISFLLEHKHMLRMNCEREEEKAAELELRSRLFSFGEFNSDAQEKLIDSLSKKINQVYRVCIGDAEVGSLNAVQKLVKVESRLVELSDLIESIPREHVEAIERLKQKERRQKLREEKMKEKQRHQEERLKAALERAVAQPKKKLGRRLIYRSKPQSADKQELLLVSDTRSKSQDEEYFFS

[2] = target: T1, GFP-CCDC38 (coiled-coil domain containing 38); remark: listed apart in the source
[3] = target: T2, HA-ODF2 (outer dense fibrous 2) (UniProt A3KGV1)
T2 sequence: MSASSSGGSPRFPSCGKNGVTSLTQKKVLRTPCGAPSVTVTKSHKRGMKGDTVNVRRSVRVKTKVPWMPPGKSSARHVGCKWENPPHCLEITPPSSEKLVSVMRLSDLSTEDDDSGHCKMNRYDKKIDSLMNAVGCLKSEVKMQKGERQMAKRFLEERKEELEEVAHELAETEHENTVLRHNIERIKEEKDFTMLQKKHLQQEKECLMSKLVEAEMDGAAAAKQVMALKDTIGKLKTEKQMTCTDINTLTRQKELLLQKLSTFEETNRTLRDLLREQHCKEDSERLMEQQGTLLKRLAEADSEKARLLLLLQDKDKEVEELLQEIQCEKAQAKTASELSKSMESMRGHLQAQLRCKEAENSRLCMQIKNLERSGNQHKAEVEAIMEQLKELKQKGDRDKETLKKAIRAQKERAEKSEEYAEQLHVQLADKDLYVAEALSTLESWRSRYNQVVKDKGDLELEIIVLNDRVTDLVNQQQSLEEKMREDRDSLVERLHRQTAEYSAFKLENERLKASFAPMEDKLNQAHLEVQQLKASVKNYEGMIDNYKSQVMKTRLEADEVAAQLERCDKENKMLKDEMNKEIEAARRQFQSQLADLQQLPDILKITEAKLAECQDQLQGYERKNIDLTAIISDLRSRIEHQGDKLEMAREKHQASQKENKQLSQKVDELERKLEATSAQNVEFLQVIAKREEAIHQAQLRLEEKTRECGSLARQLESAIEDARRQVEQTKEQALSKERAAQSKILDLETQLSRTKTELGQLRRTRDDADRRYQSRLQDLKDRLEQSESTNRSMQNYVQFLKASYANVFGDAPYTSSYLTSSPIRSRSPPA

MYC-CCDC42 = target: T3, MYC-CCDC42 (UniProt Q5SV66)
T3 sequence: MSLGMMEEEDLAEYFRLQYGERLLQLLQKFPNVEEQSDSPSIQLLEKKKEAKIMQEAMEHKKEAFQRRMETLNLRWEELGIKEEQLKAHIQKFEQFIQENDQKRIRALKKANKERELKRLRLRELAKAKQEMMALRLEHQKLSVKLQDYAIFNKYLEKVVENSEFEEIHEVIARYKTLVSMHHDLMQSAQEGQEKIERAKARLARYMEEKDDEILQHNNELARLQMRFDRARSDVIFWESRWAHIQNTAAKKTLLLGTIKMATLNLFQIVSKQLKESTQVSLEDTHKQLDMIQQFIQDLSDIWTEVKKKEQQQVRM

- binding [1]: no binding
Molecule: FLAG-IFT20 (from UniProt Q61025 1-132)

- binding [2]: binds
B1: MYC-IFT88 (intra-flagellar transport protein 88) (protein, UniProt Q61371 1-824)
chain: MENVHLAPETDEDDLYSGFNDYNPAYDTEELENDTGFQQAVRTSHGRRPPVTAKIPSTAVSRPIATGYGSKTSLTSSMGRPMTGTIQDGVARPMTAVRAAGFSKAALRGSAFDPLGQSRGPAPPLEAKNEDSPEEKIRQLEKKVNELVEESCIANSCGDLKLALEKAKDAGRKERVLVRQREQVTSPENINLDLTYSVLFNLASQYSANEMYAEALNTYQVIVKNKMFSNAGRLKVNMGNIYLKQRNYSKAIKFYRMALDQIPSVHKEMRIKIMQNIGITFIKTGQYSDAINSFEHIMSMAPSLKAGFNLILSCFAIGDREKMKKAFQKLIAVPLEIDEDDKYISPSDDPHTNLLIEAIKNDHLRQMERERKAMAEKYIMTAAKLIAPVIEASFAVGYNWCVEVVKASQYVELANDLEINKAITYLRQKDFNQAVDTLKMFEKKDSRVKSAAATNLSFLYYLENEFAQASSYADLAVNSDRYNPSALTNKGNTVFANGDYEKAAEFYKEALRNDSSCTEALYNIGLTYKKLNRLDEALDSFLKLHAILRNSAQVLCQIANIYELMEDPNQAIEWLMQLISVVPTDSQALSKLGELYDSEGDKSQAFQYYYESYRYFPSNIEVIEWLGAYYIDTQFCEKAIQYFERASLIQPTQVKWQLMVASCFRRSGNYQKALDTYKEIHRKFPENVECLRFLVRLCTDIGLKEVQEYATKLKRLEKMKEMREQRIKSGRDSSGGSRSKREGSAGSDSGQNNSASSKSERLSAKLRALPGTDEPYESSGNKEIDASYVDPLGPQIERPKTAAKKRIDEDDFADEELGDDLLPE

- binding [3]: binds
- binding (MYC-CCDC42): binds
B2: GFP-CCDC38 (coiled-coil domain containing 38) (protein, UniProt Q8CDN8 1-563)
chain: MASQMHTSISSGDEGKDAVLKKERPYKIFFKDLFVFKENEIAARKKERMKNHSMKIYQKTTFSSRMKSRSHLGQLAFFADAGSSSYERLGLDPTLILRLTEGADRKRTVHEFINDQRDRFLLEYTVSTKKKTIKRFERLIAIKENQLKKAEKKLQDDALSFEEFLRENDQRSVDALKMAAQETINKLQMTSELKKASMEVQSIKSDIAKTEFLLKEYMKYGFFLLKLSPKQWQIQQSQKRAQSSKSNHILPKILEKFSINTAKGDNSIDSDKMSVSEEWSSRRGSQGGRHGKHTLGQDSRKSSGFTRPESMASEDSLEYFLEDELVEFDLLPEIYFKEPEELLQVFTELEEQNLTLVQYSQDVDENLEDVNKREKFIQDKINNNISFLLEHKHMLRMNCEREEEKAAELELRSRLFSFGEFNSDAQEKLIDSLSKKINQVYRVCIGDAEVGSLNAVQKLVKVESRLVELSDLIESIPREHVEAIERLKQKERRQKLREEKMKEKQRHQEERLKAALERAVAQPKKKLGRRLIYRSKPQSADKQELLLVSDTRSKSQDEEYFFS

- binding [2]: binds
B3: HA-ODF2 (outer dense fibrous 2) (protein, UniProt A3KGV1 1-830)
chain: MSASSSGGSPRFPSCGKNGVTSLTQKKVLRTPCGAPSVTVTKSHKRGMKGDTVNVRRSVRVKTKVPWMPPGKSSARHVGCKWENPPHCLEITPPSSEKLVSVMRLSDLSTEDDDSGHCKMNRYDKKIDSLMNAVGCLKSEVKMQKGERQMAKRFLEERKEELEEVAHELAETEHENTVLRHNIERIKEEKDFTMLQKKHLQQEKECLMSKLVEAEMDGAAAAKQVMALKDTIGKLKTEKQMTCTDINTLTRQKELLLQKLSTFEETNRTLRDLLREQHCKEDSERLMEQQGTLLKRLAEADSEKARLLLLLQDKDKEVEELLQEIQCEKAQAKTASELSKSMESMRGHLQAQLRCKEAENSRLCMQIKNLERSGNQHKAEVEAIMEQLKELKQKGDRDKETLKKAIRAQKERAEKSEEYAEQLHVQLADKDLYVAEALSTLESWRSRYNQVVKDKGDLELEIIVLNDRVTDLVNQQQSLEEKMREDRDSLVERLHRQTAEYSAFKLENERLKASFAPMEDKLNQAHLEVQQLKASVKNYEGMIDNYKSQVMKTRLEADEVAAQLERCDKENKMLKDEMNKEIEAARRQFQSQLADLQQLPDILKITEAKLAECQDQLQGYERKNIDLTAIISDLRSRIEHQGDKLEMAREKHQASQKENKQLSQKVDELERKLEATSAQNVEFLQVIAKREEAIHQAQLRLEEKTRECGSLARQLESAIEDARRQVEQTKEQALSKERAAQSKILDLETQLSRTKTELGQLRRTRDDADRRYQSRLQDLKDRLEQSESTNRSMQNYVQFLKASYANVFGDAPYTSSYLTSSPIRSRSPPA
